Results are given in words; binding and its absence hold for the method and conditions named. Binding seen in cells or lysates may run through a third protein. Some binding calls cover weakened binding; strength is not graded here.
Tests used:
NOP-RLuc (human) [1] = molecular target: NOP-RLuc (human) (UniProt P41146); assay: FRET or BRET; whole HEK-293 cells (NOP-RLuc) or SH-SY5Y cells (Mu-RLuc) co-expressing β-arrestin 2-RGFP, plated 24 h before, in DPBS with 0.5 mM MgCl2 and 0.9 mM CaCl2; coelenterazine 5 μM; agonist peptides added for 5 min; room temperature
Mu-RLuc (human) = Mu-RLuc (human) (UniProt P35372); assay: FRET or BRET
NOP-RLuc (human) [2] = molecular target: NOP-RLuc (human) (UniProt P41146); assay: FRET or BRET; membranes (3 μg protein) of HEK-293 cells (NOP-RLuc) or SH-SY5Y cells (Mu-RLuc) co-expressing Gβ1-RGFP, in Dulbecco's PBS; coelenterazine 5 μM; agonist peptides added for 5 min; room temperature

Sequences of proteins named here, by UniProt entry; tags and fusion partners are left off.
UniProt P41146: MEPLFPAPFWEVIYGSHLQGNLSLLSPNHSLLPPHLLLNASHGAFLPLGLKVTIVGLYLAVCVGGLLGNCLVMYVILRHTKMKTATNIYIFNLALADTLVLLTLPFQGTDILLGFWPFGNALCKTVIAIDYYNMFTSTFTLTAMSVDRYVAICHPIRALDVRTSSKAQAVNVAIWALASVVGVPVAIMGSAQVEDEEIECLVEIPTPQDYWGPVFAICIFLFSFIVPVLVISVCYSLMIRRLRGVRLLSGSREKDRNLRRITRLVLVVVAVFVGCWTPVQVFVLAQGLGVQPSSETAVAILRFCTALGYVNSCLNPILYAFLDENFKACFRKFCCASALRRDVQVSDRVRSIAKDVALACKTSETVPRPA
UniProt P35372: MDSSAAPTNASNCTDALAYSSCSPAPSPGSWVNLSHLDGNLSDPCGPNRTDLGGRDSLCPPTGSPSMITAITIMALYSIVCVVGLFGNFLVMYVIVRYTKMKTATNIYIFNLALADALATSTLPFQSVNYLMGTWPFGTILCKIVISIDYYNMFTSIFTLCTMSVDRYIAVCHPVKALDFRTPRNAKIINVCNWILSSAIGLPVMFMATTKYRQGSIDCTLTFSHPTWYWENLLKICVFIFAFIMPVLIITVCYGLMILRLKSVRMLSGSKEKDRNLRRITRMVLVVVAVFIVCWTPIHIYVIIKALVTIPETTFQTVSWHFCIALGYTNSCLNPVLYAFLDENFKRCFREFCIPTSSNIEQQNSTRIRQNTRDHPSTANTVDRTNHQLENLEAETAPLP
UniProt P32121: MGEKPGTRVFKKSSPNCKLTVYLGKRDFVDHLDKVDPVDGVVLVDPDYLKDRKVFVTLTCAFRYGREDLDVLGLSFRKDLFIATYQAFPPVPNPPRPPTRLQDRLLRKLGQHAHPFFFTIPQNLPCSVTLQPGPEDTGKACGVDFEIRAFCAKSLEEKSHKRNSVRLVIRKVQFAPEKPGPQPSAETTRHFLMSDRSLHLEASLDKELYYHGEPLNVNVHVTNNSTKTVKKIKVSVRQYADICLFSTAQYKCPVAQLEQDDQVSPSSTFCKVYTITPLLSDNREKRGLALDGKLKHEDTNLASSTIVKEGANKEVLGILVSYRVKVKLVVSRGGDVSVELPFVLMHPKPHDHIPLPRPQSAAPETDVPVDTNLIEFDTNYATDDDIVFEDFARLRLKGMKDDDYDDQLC
UniProt P62873: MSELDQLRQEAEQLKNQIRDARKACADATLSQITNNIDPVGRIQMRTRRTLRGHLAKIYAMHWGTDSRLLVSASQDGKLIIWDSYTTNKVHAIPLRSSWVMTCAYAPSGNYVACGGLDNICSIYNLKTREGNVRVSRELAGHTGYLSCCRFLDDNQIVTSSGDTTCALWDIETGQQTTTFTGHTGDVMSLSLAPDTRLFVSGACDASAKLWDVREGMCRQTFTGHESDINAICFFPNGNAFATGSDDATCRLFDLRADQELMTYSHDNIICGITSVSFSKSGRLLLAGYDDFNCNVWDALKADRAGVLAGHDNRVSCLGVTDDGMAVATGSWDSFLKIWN

| Substance | binding (NOP-RLuc (human) [1]) | binding (Mu-RLuc (human)) | binding (NOP-RLuc (human) [2]) |
| --- | --- | --- | --- |
| β-arrestin 2-RGFP (from UniProt P32121 1-409) | binds | binds |  |
| Gβ1-RGFP (from UniProt P62873 1-340) |  |  | binds |

From publication PMC4896453
